Data as given in PubChem BioAssay AID504774 (Drosophila RNAi Screening Center, 2011).

Aim: 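Fly genes whose loss alters survival after alkylation damage to DNA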 (primary screen)
Cells: Drosophila Kc167 cells
Reagents: long dsRNA against Drosophila genes, about 0.25 µg dsRNA per well
Timing: about 6 days: 3 days knock-down, then 3 days with or without MMS
Treatment: methyl methanesulphonate 0.004% (w/v) for 3 days after knock-down
Detection: 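Viability in wells given MMS, read as ATP luminescence, normalised by quantiles plate by plate and averaged across replicates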
Reading the numbers: mean viability with MMS and viability with MMS: higher = more surviving cells after MMS
The screen tested about 23,000 reagents; below is an unselected part of those that have a named target and a result. 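Values are quantile-normalised luminescence on an arbitrary scale; higher means more cells surviving MMS.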

| mean viability with MMS | viability with MMS, replicate 1 | viability with MMS, replicate 2 | gene | amplicon |
| --- | --- | --- | --- | --- |
| 3.73e6 | 4.21e6 | 4.20e6 | Pp1-Y2 | DRSC21608 |
| 3.48e6 | 4.01e6 | 3.88e6 | RhoGAP100F | DRSC15409 |
| 3.54e6 | 3.96e6 | 4.08e6 | Gfat2 | DRSC14598 |
| 3.39e6 | 3.77e6 | 3.86e6 | Scox | DRSC03117 |
| 3.47e6 | 3.98e6 | 3.88e6 | P5cr-2 | DRSC15889 |
| 3.60e6 | 4.06e6 | 4.11e6 | CG1142 | DRSC12531 |
| 3.67e6 | 4.00e6 | 4.35e6 | Pkg21D | DRSC00772 |
| 3.53e6 | 4.14e6 | 3.88e6 | Dh44 | DRSC12747 |
| 3.64e6 | 4.10e6 | 4.08e6 | Dh44 | DRSC16409 |
| 3.56e6 | 3.98e6 | 4.09e6 | tomboy40 | DRSC04918 |
| 3.42e6 | 3.88e6 | 3.82e6 | Krn | DRSC11202 |
| 3.58e6 | 4.01e6 | 4.11e6 | Vha36-1 | DRSC07098 |
| 3.51e6 | 3.92e6 | 4.03e6 | CalpA | DRSC07352 |
| 3.44e6 | 3.81e6 | 3.95e6 | Kpc1 | DRSC16107 |
| 3.62e6 | 4.24e6 | 3.98e6 | Pex7 | DRSC10651 |
| 1.97e6 | 4.02e6 | – | Xbp1 | DRSC04553 |
| 3.49e6 | 3.97e6 | 3.98e6 | Xbp1 | DRSC21624 |
| 3.63e6 | 4.10e6 | 4.16e6 | Rac2 | DRSC11262 |
| 3.61e6 | 4.02e6 | 4.16e6 | Ccp84Ac | DRSC12588 |
| 3.58e6 | 4.12e6 | 4.01e6 | CG3165 | DRSC00573 |
| 3.34e6 | 3.76e6 | 3.81e6 | Coa7 | DRSC20967 |
| 3.38e6 | 3.80e6 | 3.79e6 | c-cup | DRSC00458 |
| 3.58e6 | 3.93e6 | 4.17e6 | grh | DRSC05680 |
| 3.22e6 | 3.69e6 | 3.69e6 | grh | DRSC05683 |
| 3.69e6 | 4.21e6 | 4.16e6 | grh | DRSC07624 |
| 3.62e6 | 4.26e6 | 3.94e6 | grh | DRSC07625 |
| 3.78e6 | 4.34e6 | 4.15e6 | hmw | DRSC16277 |
| 3.49e6 | 3.97e6 | 3.96e6 | bol | DRSC08964 |
| 3.45e6 | 3.77e6 | 4.06e6 | bol | DRSC10444 |
| 3.40e6 | 3.68e6 | 4.01e6 | bol | DRSC11329 |
| 3.56e6 | 4.07e6 | 4.00e6 | wam | DRSC15171 |
| 3.51e6 | 4.02e6 | 3.92e6 | Stt3A | DRSC20514 |
| 3.67e6 | 4.03e6 | 4.32e6 | Zip88E | DRSC15562 |
| 3.35e6 | 3.84e6 | 3.77e6 | Pgant6 | DRSC08552 |
| 3.61e6 | 4.04e6 | 4.12e6 | CG11263 | DRSC09832 |
| 3.50e6 | 3.96e6 | 3.98e6 | CG13282 | DRSC02254 |
| 3.52e6 | 3.93e6 | 4.06e6 | CG15333 | DRSC18016 |
| 3.60e6 | 3.93e6 | 4.23e6 | CG15333 | DRSC18153 |
| 3.46e6 | 3.94e6 | 3.77e6 | Oda | DRSC07626 |
| 3.58e6 | 4.14e6 | 3.96e6 | CG18518 | DRSC01509 |
| 3.49e6 | 3.93e6 | 3.98e6 | CCDC151 | DRSC10131 |
| 3.54e6 | 4.00e6 | 4.04e6 | CG14971 | DRSC08430 |
| 3.54e6 | 4.01e6 | 4.03e6 | CG42541 | DRSC17973 |
| 2.65e6 | 3.34e6 | 3.32e6 | CG42541 | DRSC18119 |
| 3.65e6 | 4.10e6 | 4.17e6 | CG42541 | DRSC18120 |
| 3.63e6 | 4.03e6 | 4.20e6 | CG16727 | DRSC15139 |
| 3.50e6 | 3.97e6 | 4.00e6 | CG15468 | DRSC18051 |
| 3.46e6 | 3.83e6 | 3.98e6 | fd96Ca | DRSC16946 |
| 3.72e6 | 4.18e6 | 4.21e6 | Dr | DRSC17002 |
| 3.12e6 | 3.74e6 | 3.76e6 | Dr | DRSC22708 |
| 3.49e6 | 3.89e6 | 4.02e6 | aay | DRSC11320 |
| 3.17e6 | 3.90e6 | 3.94e6 | Not3 | DRSC04908 |
| 3.88e6 | 4.01e6 | 4.55e6 | CG17760 | DRSC06694 |
| 3.69e6 | 4.43e6 | 3.95e6 | CG12693 | DRSC17882 |
| 3.48e6 | 4.12e6 | 3.89e6 | Pgant35A | DRSC03557 |
| 3.45e6 | 3.91e6 | 3.88e6 | Eb1 | DRSC05016 |
| 3.36e6 | 3.73e6 | 3.83e6 | hlk | DRSC05021 |
| 3.29e6 | 3.64e6 | 3.68e6 | hlk | DRSC05022 |
| 3.58e6 | 4.00e6 | 4.11e6 | Prosalpha3T | DRSC15226 |
| 3.59e6 | 4.05e6 | 4.06e6 | CG13775 | DRSC02279 |
| 1.76e6 | 4.08e6 | 3.80e6 | CG31496 | DRSC12547 |
| 3.22e6 | 3.65e6 | 3.58e6 | CG10333 | DRSC02036 |
| 3.62e6 | 4.05e6 | 4.19e6 | Cyp310a1 | DRSC03301 |
| 3.62e6 | 4.03e6 | 4.18e6 | ldbr | DRSC10933 |
| 3.63e6 | 4.11e6 | 4.16e6 | CG2017 | DRSC12293 |
| 3.32e6 | 3.48e6 | 3.87e6 | garz | DRSC07193 |
| 3.69e6 | 4.10e6 | 4.33e6 | msl-2 | DRSC00829 |
| 3.55e6 | 4.02e6 | 4.03e6 | CG4367 | DRSC15568 |

Targets above whose target name begins with S or s:
| mean viability with MMS | viability with MMS, replicate 1 | viability with MMS, replicate 2 | gene | amplicon |
| --- | --- | --- | --- | --- |
| 3.39e6 | 3.77e6 | 3.86e6 | Scox | DRSC03117 |
| 3.51e6 | 4.02e6 | 3.92e6 | Stt3A | DRSC20514 |
